This is an account of results in doi:10.1101/2025.05.20.655052.

Amino acid sequences for entries named in this document (tags omitted). A change or cut given only in a name is not applied to a line headed by its entry. Residues count along the entry.
UniProt Q5TGZ0: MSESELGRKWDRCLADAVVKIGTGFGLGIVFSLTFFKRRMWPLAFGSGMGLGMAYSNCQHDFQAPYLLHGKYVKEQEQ
UniProt Q5XKP0: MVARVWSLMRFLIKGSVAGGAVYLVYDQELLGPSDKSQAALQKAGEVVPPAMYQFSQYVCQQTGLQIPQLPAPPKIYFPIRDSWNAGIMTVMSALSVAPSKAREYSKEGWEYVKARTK
UniProt P21796: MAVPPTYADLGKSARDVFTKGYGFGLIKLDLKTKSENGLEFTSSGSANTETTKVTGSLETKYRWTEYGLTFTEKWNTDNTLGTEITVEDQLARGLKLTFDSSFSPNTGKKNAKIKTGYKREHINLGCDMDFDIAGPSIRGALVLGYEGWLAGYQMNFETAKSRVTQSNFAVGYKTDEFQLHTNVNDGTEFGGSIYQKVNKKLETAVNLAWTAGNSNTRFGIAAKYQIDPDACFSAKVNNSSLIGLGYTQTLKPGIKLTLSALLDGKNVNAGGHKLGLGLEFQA
UniProt Q3ZCQ8, residues 45-353: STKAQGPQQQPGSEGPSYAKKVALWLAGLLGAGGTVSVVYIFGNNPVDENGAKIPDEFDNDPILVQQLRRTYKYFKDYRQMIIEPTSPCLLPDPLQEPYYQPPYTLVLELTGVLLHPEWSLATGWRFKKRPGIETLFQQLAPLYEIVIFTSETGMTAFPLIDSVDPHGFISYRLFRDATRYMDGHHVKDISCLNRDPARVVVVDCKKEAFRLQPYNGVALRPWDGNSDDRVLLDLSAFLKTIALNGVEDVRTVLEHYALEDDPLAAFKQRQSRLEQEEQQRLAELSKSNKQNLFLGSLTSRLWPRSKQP
UniProt Q8IXI2: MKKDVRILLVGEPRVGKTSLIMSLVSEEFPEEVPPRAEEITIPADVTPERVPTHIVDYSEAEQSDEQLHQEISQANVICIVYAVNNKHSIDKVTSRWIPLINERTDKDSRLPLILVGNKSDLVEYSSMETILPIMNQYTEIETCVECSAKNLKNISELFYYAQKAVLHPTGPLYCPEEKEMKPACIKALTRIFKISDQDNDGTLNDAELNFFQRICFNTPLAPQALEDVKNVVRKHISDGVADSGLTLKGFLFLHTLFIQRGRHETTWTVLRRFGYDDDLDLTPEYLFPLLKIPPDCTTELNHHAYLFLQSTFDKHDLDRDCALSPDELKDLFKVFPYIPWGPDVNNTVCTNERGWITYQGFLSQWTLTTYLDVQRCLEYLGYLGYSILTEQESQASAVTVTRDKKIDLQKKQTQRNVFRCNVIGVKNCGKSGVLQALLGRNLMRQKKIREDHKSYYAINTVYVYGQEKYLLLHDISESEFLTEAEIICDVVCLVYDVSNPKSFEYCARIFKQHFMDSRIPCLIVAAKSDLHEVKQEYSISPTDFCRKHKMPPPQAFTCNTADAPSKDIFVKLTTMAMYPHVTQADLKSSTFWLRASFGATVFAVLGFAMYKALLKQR
UniProt P12235: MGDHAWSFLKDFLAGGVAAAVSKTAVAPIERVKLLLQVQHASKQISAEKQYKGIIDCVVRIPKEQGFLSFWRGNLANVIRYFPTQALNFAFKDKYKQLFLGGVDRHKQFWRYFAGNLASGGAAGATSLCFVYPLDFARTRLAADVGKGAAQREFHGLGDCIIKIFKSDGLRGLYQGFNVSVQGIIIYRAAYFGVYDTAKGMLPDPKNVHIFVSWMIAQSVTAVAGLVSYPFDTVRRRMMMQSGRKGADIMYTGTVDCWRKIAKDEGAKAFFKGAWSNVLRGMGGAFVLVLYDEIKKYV
UniProt Q9BPX6, residues 34-476: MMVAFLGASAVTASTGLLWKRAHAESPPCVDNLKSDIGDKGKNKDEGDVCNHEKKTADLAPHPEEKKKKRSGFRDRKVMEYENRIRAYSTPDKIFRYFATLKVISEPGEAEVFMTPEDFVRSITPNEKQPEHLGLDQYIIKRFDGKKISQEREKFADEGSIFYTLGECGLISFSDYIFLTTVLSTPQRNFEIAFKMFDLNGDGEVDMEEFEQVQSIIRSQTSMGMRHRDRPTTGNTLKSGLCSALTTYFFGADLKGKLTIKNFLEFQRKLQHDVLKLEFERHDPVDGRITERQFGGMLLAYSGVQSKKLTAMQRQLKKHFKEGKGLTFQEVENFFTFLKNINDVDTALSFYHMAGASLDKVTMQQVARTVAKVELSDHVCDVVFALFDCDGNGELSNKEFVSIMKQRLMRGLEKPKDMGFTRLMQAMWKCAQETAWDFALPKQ
UniProt P00414: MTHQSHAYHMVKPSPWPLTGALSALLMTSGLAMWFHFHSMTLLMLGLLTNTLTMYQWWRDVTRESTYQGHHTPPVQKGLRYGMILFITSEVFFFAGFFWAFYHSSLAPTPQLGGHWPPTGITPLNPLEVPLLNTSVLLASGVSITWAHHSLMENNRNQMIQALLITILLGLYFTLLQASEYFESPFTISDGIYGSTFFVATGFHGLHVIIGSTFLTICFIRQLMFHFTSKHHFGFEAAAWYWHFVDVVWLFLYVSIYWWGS
UniProt P56962: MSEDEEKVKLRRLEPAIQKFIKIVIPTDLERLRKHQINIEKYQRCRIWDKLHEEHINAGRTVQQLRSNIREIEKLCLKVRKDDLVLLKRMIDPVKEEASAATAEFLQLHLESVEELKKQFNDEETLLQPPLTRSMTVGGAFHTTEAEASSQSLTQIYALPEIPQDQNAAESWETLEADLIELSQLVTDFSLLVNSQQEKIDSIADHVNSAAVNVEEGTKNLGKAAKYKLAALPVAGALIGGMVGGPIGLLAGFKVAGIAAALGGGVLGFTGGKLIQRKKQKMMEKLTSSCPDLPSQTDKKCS
UniProt Q14318: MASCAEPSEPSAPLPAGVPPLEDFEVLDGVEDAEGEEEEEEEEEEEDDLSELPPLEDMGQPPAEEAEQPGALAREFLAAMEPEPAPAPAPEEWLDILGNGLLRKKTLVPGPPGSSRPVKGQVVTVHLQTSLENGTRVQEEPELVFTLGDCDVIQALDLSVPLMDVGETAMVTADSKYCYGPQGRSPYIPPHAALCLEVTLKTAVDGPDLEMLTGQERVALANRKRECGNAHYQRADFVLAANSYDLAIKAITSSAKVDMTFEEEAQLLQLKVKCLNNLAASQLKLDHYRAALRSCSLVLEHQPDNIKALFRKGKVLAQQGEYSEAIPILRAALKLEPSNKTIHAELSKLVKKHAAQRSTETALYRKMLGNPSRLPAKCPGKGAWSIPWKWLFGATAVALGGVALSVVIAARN
UniProt Q7Z434: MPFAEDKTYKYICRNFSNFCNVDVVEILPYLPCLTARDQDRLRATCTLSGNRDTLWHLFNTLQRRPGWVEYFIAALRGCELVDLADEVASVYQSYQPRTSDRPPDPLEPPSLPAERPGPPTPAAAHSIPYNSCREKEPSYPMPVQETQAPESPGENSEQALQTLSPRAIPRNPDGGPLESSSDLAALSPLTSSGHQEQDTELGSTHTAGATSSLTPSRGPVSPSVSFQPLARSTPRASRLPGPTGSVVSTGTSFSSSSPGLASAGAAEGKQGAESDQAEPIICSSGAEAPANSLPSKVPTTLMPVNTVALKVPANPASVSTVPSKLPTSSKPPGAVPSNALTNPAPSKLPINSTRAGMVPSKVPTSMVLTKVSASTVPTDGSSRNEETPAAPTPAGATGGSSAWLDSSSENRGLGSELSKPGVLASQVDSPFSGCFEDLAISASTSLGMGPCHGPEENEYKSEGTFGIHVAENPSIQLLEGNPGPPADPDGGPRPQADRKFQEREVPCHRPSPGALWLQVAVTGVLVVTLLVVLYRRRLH
UniProt O00429: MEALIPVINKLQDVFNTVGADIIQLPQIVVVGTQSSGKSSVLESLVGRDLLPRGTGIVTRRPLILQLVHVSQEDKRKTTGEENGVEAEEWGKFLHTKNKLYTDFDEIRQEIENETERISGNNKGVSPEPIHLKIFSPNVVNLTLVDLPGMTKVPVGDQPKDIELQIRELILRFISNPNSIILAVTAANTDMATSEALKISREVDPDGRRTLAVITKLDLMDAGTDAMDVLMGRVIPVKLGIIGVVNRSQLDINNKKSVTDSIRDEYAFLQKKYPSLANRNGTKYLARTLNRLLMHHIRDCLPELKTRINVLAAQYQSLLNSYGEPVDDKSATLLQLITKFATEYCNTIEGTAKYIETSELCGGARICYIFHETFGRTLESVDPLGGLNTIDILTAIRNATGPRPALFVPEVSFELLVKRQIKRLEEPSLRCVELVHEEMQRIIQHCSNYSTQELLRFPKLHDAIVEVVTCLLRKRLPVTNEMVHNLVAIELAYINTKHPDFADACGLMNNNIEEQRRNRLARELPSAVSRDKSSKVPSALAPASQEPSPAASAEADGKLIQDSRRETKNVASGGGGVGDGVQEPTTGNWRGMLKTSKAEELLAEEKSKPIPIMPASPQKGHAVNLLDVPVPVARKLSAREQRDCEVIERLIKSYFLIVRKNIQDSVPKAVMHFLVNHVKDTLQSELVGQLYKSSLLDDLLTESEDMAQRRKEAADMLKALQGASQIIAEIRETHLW
UniProt Q96E52: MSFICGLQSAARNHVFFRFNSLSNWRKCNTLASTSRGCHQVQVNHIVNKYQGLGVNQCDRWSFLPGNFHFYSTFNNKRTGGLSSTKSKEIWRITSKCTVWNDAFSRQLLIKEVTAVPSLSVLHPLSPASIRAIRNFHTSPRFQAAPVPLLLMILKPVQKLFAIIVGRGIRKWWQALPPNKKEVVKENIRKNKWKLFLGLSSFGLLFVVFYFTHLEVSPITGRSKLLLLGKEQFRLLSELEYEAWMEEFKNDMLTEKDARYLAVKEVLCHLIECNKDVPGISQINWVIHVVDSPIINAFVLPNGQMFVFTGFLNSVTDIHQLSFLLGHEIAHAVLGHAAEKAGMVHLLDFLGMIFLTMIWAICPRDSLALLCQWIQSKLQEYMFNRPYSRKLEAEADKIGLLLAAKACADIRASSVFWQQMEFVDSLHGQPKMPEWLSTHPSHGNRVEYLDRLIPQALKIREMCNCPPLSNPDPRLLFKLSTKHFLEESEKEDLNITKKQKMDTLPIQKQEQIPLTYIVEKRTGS
UniProt O60830: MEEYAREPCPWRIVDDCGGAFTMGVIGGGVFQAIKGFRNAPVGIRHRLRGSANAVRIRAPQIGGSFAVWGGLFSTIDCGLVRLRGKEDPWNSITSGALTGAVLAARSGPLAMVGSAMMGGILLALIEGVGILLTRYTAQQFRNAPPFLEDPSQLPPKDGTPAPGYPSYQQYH

What all share (experiment): proximity labelling
One experiment concerns the target T1, MIC26-APEX2-Myc (human) (UniProt Q9BUR5).
T1 sequence: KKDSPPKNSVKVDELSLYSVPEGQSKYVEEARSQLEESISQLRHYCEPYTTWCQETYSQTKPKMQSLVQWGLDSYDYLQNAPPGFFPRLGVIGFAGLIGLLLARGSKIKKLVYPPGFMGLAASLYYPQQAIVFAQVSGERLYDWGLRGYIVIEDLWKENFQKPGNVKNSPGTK

Another experiment deals with MIC10-APEX2-Myc (human) (UniProt Q5TGZ0).
The target in another experiment is MIC13-APEX2-Myc (human) (UniProt Q5XKP0).
The next experiment concerns the target T2, MIC27-APEX2-Myc (human) (UniProt Q6UXV4).
T2 sequence: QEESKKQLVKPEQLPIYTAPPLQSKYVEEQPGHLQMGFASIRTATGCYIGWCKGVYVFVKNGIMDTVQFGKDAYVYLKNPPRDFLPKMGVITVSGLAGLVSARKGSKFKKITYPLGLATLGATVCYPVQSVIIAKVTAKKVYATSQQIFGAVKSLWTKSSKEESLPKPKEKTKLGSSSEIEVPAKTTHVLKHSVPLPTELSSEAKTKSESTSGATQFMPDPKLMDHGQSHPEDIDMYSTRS

No constants are given. Whether binding was seen depends on the method and setting. Binding seen in cells or lysates may run through a third protein. These calls come from enrichment with a bait or labelling near it, and not all partners need be listed. For part of these data: A no says only that the protein was not detected with the bait. For part of these data: Sequences can lack the tags named with a protein.

“voltage dependent anion channel 1 (from UniProt P21796 1-283)”: the binding entry with MIC26-APEX2-Myc (human), with MIC10-APEX2-Myc (human), with MIC13-APEX2-Myc (human) and in the experiment with MIC27-APEX2-Myc (human) was “binds” throughout.
As for “translocase of inner membrane 50 (from UniProt Q3ZCQ8 45-353)”, the binding result with MIC26-APEX2-Myc (human), with MIC10-APEX2-Myc (human), with MIC13-APEX2-Myc (human) and with MIC27-APEX2-Myc (human) was “binds” throughout.
Take “Ras Homolog Family Member T1 (from UniProt Q8IXI2 1-618)”: in the experiment with MIC10-APEX2-Myc (human), the binding entry is listed as “binds”.
Regarding SLC25A4 (from UniProt P12235 1-298), in the experiment with MIC13-APEX2-Myc (human), the binding entry is “binds”.
With “mitochondrial calcium uptake 1 (from UniProt Q9BPX6 34-476)”, the binding entry with MIC26-APEX2-Myc (human), in the experiment with MIC10-APEX2-Myc (human), in the experiment with MIC13-APEX2-Myc (human) and with MIC27-APEX2-Myc (human) was “binds” throughout.
Take MT-CO3 (from UniProt P00414 1-261): the binding result in the experiment with MIC26-APEX2-Myc (human) is “no binding”; in the experiment with MIC10-APEX2-Myc (human), “binds”; with MIC13-APEX2-Myc (human) it was “binds”; in the experiment with MIC27-APEX2-Myc (human), “no binding”.
On to syntaxin 17 (from UniProt P56962 1-302), for which the binding entry with MIC26-APEX2-Myc (human), in the experiment with MIC10-APEX2-Myc (human), in the experiment with MIC13-APEX2-Myc (human) and with MIC27-APEX2-Myc (human) was “binds” each time.
As for “FKBP Prolyl Isomerase 8 (from UniProt Q14318 1-412)”, the binding entry with MIC26-APEX2-Myc (human), with MIC10-APEX2-Myc (human), with MIC13-APEX2-Myc (human) and in the experiment with MIC27-APEX2-Myc (human) was “binds” in each case.
Regarding “mitochondrial antiviral-signaling protein (from UniProt Q7Z434 1-540)”, the binding result with MIC26-APEX2-Myc (human), with MIC10-APEX2-Myc (human), in the experiment with MIC13-APEX2-Myc (human) and with MIC27-APEX2-Myc (human) was “binds” in each case.
For “Dynamin 1 Like (from UniProt O00429 1-736)”, the binding entry with MIC10-APEX2-Myc (human) is given as “binds”.
Regarding MIC13 (from UniProt Q5XKP0 1-118), the binding entry in the experiment with MIC26-APEX2-Myc (human), with MIC10-APEX2-Myc (human) and with MIC27-APEX2-Myc (human) was “binds” in each case.
Turning to MRPL46 (human (endogenous in HEK293)), the binding entry with MIC27-APEX2-Myc (human) is given as “binds”.
Turning to DIABLO (human (endogenous in HEK293)), the binding result in the experiment with MIC26-APEX2-Myc (human) and with MIC27-APEX2-Myc (human) was “binds” throughout.
As for OMA1 (from UniProt Q96E52) (enzyme), the binding entry in the experiment with MIC26-APEX2-Myc (human), in the experiment with MIC10-APEX2-Myc (human), with MIC13-APEX2-Myc (human) and with MIC27-APEX2-Myc (human) was “binds” in each case.
Consider “translocase of inner membrane 17B (from UniProt O60830 1-172)”, for which the binding result with MIC26-APEX2-Myc (human), with MIC10-APEX2-Myc (human), in the experiment with MIC13-APEX2-Myc (human) and with MIC27-APEX2-Myc (human) was “binds” in each case.
